Experiment: ASTM-D3519 blender foam test (foam suppression)
Conditions: for Foam Height, Initial: 25° C., blender 30 seconds
[1] = Table 4, 0.2 wt. % compound as 50 wt. % solution in 2-Ethylhexanol
[2] = Table 1, 0.2 wt. % compound added as 50 wt. % solution in 2-ethylhexanol
[3] = Table 1, 0.2 wt. % compound as 50 wt. % solution in 2-ethylhexanol

Substance: 2:1 Epoxyhexane/Polyoxypropylene Diamine Adduct [Example 7]
- Foam Height, 5 min (Table 4, 0.2 wt. %): 0.5 cm
- minutes to no foam (Table 4, 0.2 wt. %): 7 minutes to no foam
- Foam Height, Initial [1]: 2.5 cm

Substance: 2:1/2-Ethylhexyl glycidyl ether/Polyoxypropylene Diamine Adduct [Example 12]
- Foam Height, 5 min (Table 4, 0.2 wt. %): 0.6 cm
- minutes to no foam (Table 4, 0.2 wt. %): 10 minutes to no foam
- Foam Height, Initial [1]: 2.4 cm

Substance: 2:1/Epoxydecane/Polyoxypropylene Diamine Adduct [Example 10]
- Foam Height, 5 min (Table 4, 0.2 wt. %): 0.6 cm
- minutes to no foam (Table 4, 0.2 wt. %): 8 minutes to no foam
- Foam Height, Initial [1]: 2.0 cm

Substance: 2:1/Epoxydodecane/Polyoxypropylene Diamine Adduct [Example 11]
- Foam Height, 5 min (Table 4, 0.2 wt. %): 0.4 cm
- minutes to no foam (Table 4, 0.2 wt. %): 7 minutes to no foam
- Foam Height, Initial [1]: 1.9 cm

Substance: 2:1/Epoxyoctane/Polyoxypropylene Diamine Adduct [Example 8]
- minutes to no foam (Table 4, 0.2 wt. %): 5 minutes to no foam
- Foam Height, Initial [1]: 1.4 cm

Substance: 4:1/Epoxyoctane/Polyoxypropylene Diamine Adduct [Example 9]
- Foam Height, 5 min (Table 4, 0.2 wt. %): 1.1 cm
- Foam Height, 10 min (Table 4, 0.2 wt. %): 0.2 cm
- Foam Height, Initial [1]: 2.8 cm

Substance: The 2:1 2-ethylhexyl glycidyl ether adduct of diethylenetriamine [Comparative Example 1, reference compound]
- Foam Height, Initial [2]: 2.0 cm
- Foam Height, 5 min [3]: 0.3 cm
- minutes to no foam [3]: 8 minutes to no foam

Substance: The 2:1 isobutyl glycidyl ether adduct of diethylenetriamine [Comparative Example 2, reference compound]
- Foam Height, Initial [2]: 2.2 cm
- Foam Height, 5 min [3]: 0.9 cm
- Foam Height, 10 min [3]: 0.4 cm
- minutes to no foam [3]: 13 minutes to no foam

Substance: diethylenetriamine/2 mol 1-epoxyoctane adduct [Example 2]
- Foam Height, Initial [2]: 1.4 cm
- minutes to no foam [3]: 3 minutes to no foam

Source: US8815007B2, “Alkoxylated polyamines and polyetheramine polyol compositions for foam control” (priority 2007, dated 2014)
